Assay results reported in the M2OR odorant receptor database.
Numbering of substitutions follows the chain as printed. The entries are a selection whose mix differs from that of the whole data set. The calls were merged from several studies; some rest on single wells. Some of the results follow.

The chains behind the UniProt entries cited, without tags or fusion partners. Where a name states a change or a piece, a line headed by the entry shows the natural chain unless it says otherwise.
UniProt Q8NGZ5: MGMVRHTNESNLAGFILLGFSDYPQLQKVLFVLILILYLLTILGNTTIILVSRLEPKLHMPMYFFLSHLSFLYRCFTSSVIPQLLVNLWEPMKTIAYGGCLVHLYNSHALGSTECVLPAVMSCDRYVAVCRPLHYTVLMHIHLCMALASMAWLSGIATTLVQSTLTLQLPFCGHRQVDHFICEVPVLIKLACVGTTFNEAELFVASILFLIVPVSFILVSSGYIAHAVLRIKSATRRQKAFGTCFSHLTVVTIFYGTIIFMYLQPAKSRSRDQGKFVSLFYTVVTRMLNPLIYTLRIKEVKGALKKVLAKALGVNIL

Assays:
Settings in all cases: stereoisomer not certain
OR2C3 = tested on: T1, OR2C3
T1 sequence (whole entry): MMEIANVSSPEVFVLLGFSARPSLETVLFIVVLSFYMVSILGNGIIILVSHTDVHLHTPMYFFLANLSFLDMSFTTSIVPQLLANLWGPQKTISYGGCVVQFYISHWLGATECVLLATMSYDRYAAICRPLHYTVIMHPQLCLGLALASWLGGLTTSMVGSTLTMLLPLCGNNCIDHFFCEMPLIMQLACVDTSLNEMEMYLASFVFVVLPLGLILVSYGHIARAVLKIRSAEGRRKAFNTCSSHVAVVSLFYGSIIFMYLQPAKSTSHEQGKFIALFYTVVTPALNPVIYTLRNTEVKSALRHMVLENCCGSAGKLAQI
How it was run: (§1)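 Values were gathered from published papers (main text and supplementary material), with extra details requested from the original authors when needed, and checked for typos and inconsistencies. Each receptor–molecule pair is called responsive (active) if the original authors judged the measured signal statistically different from baseline, and non-responsive (inactive) otherwise. Assay methods varied by source, often transient mammalian cell-line luciferase assays. Recorded details include cell line, G-protein, co-transfected protein and tags.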

OR2D2 (Homo sapiens) = biological target: T2, OR2D2 (Homo sapiens) (UniProt Q9H210)
T2 sequence (whole entry): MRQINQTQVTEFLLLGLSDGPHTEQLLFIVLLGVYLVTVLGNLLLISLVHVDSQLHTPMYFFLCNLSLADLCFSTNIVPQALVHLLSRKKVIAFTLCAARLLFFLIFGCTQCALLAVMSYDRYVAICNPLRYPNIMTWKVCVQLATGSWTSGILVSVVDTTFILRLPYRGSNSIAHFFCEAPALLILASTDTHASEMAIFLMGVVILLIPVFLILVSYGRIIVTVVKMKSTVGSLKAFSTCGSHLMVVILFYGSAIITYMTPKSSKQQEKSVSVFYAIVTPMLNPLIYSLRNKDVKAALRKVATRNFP
How it was run: as §1

OR2D3 = tested on: T3, OR2D3
T3 sequence (whole entry): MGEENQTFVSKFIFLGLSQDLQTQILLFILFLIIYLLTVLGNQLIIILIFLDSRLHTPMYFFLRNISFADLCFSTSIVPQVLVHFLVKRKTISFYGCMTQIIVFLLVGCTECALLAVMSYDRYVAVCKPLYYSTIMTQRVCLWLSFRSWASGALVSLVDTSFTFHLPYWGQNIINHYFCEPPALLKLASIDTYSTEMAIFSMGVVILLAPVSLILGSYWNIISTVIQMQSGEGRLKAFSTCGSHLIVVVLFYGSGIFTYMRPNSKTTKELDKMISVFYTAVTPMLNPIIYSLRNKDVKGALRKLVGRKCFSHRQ
How it was run: as §1

OR2F1 (Homo sapiens) = biological target: T4, OR2F1 (Homo sapiens) (UniProt Q13607)
T4 sequence (whole entry): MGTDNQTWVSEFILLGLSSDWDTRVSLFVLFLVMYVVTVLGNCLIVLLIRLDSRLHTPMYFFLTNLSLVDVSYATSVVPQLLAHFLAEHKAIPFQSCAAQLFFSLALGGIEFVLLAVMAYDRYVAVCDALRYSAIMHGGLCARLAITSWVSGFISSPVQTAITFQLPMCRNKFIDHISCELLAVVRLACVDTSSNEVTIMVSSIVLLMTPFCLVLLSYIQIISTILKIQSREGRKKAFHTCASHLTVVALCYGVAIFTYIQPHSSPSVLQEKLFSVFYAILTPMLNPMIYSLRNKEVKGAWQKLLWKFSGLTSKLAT
How it was run: as §1

OR2F2 = tested on: T5, OR2F2
T5 sequence (whole entry): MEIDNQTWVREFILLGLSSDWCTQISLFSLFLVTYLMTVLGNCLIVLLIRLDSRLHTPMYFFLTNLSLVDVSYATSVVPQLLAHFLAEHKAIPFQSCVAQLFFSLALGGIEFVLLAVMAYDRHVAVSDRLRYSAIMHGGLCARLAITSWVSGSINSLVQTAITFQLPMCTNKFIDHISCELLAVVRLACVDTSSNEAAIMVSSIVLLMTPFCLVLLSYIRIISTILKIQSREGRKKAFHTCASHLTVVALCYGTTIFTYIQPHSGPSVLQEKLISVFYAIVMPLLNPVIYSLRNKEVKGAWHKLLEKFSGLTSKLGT
How it was run: as §1

OR2G2 [1] = tested on: T6, OR2G2
T6 sequence (whole entry): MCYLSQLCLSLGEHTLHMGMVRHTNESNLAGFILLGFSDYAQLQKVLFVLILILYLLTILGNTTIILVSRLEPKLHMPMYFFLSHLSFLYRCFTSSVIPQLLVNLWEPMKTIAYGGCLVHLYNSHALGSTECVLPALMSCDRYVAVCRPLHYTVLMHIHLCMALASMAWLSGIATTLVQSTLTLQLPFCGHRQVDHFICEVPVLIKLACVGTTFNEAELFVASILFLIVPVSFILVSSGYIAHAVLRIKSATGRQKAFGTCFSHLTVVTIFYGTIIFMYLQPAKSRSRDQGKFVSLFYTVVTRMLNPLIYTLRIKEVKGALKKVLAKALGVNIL
How it was run: as §1

OR2G2 [2] = tested on: T7, OR2G2; remark: listed apart in the source
T7 sequence (whole entry): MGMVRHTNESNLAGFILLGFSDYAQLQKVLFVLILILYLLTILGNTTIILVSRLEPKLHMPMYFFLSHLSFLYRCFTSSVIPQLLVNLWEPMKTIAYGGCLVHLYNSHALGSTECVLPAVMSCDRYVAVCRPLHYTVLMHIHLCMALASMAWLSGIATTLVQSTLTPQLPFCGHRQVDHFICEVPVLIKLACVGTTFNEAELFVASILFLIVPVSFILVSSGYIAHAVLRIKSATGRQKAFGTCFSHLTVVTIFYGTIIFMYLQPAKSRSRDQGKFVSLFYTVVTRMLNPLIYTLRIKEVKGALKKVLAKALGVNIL
How it was run: as §1

OR2G3 (Homo sapiens) = biological target: T8, OR2G3 (Homo sapiens) (UniProt Q8NGZ4)
T8 sequence (whole entry): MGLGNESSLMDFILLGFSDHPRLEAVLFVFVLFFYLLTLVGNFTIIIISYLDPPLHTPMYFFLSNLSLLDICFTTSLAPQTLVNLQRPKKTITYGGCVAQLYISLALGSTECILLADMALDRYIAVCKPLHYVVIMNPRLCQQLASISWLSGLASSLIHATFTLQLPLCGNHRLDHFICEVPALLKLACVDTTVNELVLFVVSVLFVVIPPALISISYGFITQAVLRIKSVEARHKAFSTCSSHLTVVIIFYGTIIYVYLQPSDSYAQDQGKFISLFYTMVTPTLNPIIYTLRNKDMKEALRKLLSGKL
How it was run: as §1

OR2G3 = tested on: T9, OR2G3
T9 sequence (whole entry): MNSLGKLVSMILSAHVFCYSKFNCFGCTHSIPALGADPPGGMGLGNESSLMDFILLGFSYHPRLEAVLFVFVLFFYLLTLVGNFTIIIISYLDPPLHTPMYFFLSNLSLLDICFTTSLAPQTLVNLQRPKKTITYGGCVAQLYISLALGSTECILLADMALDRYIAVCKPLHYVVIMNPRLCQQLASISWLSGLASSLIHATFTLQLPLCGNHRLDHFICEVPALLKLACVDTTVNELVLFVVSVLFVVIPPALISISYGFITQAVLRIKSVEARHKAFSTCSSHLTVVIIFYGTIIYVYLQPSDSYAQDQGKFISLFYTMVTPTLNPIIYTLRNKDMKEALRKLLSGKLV
How it was run: as §1

OR2G6 (Homo sapiens) = biological target: T10, OR2G6 (Homo sapiens) (UniProt Q5TZ20)
T10 sequence (whole entry): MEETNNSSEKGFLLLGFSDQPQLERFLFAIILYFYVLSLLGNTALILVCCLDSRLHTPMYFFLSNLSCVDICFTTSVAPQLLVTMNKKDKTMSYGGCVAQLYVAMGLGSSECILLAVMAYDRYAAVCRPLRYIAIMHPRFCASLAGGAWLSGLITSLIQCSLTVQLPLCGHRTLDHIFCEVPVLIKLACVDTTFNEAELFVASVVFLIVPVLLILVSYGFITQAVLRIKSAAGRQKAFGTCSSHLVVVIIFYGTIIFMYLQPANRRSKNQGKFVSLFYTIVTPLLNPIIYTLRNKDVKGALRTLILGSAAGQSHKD
How it was run: as §1

OR2H1 (Homo sapiens) = biological target: T11, OR2H1 (Homo sapiens) (UniProt Q9GZK4)
T11 sequence (whole entry): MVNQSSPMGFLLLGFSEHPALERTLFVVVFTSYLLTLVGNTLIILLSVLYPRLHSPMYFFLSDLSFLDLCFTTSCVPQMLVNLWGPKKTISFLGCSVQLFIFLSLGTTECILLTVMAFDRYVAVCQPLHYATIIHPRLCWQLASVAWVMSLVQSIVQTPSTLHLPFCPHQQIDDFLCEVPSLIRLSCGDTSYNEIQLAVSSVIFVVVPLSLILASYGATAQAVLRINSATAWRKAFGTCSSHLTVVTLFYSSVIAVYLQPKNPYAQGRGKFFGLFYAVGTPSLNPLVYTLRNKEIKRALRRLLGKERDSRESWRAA
How it was run: as §1

OR2H2 = tested on: T12, OR2H2
T12 sequence (whole entry): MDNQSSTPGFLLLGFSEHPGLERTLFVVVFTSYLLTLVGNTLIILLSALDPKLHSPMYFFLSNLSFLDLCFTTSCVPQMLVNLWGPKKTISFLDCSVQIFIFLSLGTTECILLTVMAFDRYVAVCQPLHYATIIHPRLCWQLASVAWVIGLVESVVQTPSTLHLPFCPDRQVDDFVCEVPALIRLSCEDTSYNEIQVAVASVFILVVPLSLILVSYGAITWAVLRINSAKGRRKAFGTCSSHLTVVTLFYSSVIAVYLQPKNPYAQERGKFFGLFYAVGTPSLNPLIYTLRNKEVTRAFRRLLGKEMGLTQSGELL
How it was run: as §1

OR2G2 (Homo sapiens) = biological target: T13, OR2G2 (Homo sapiens) (UniProt Q8NGZ5)
T13 sequence (whole entry): T7 sequence (whole entry) with A24P, P167L, G236R
How it was run: as §1

OR2H2 (Homo sapiens) = biological target: T14, OR2H2 (Homo sapiens) (UniProt O95918)
T14 sequence (whole entry): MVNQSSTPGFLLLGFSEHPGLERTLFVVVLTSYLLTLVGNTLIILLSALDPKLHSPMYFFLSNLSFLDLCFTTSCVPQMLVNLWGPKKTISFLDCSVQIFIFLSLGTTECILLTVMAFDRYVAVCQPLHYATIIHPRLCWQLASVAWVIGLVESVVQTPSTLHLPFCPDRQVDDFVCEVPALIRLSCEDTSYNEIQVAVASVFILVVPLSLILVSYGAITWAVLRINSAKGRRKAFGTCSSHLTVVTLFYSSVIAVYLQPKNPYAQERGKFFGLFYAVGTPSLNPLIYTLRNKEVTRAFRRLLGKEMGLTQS
How it was run: as §1

Structure (SMILES)	odorant receptor agonist call (OR2C3)	odorant receptor agonist call (OR2D2 (Homo sapiens))	odorant receptor agonist call (OR2D3)	odorant receptor agonist call (OR2F1 (Homo sapiens))	odorant receptor agonist call (OR2F2)	odorant receptor agonist call (OR2G2 [1])	odorant receptor agonist call (OR2G2 [2])	odorant receptor agonist call (OR2G3 (Homo sapiens))	odorant receptor agonist call (OR2G3)	odorant receptor agonist call (OR2G6 (Homo sapiens))	odorant receptor agonist call (OR2H1 (Homo sapiens))	odorant receptor agonist call (OR2H2)	odorant receptor agonist call (OR2G2 (Homo sapiens))	odorant receptor agonist call (OR2H2 (Homo sapiens))
O=C1CCCCCCCCCCCC(=O)OCCO1	inactive	active	inactive	inactive	inactive	inactive	inactive	inactive	inactive	inactive	inactive	inactive	–	–
CC(C)CC(=O)O	inactive	inactive	inactive	inactive	inactive	inactive	inactive	inactive	inactive	inactive	inactive	inactive	–	–
C=CC(C)(O)CCC=C(C)C (stereo unspecified)	inactive	inactive	inactive	inactive	inactive	inactive	inactive	inactive	inactive	inactive	inactive	inactive	inactive	–
CC(C)=CCCC(C)=CC=O	inactive	active	inactive	inactive	inactive	inactive	inactive	inactive	inactive	inactive	inactive	inactive	–	inactive
CCCCCOC(C)=O	inactive	inactive	inactive	inactive	active	inactive	inactive	inactive	inactive	inactive	inactive	inactive	–	–
CCCCCCCCCC=O	inactive	inactive	inactive	inactive	inactive	inactive	inactive	inactive	inactive	inactive	inactive	inactive	–	active
C=CCSCC=C	inactive	inactive	inactive	inactive	inactive	inactive	inactive	inactive	inactive	inactive	inactive	inactive	–	–
CCCCCCCCCCC=O	inactive	inactive	inactive	inactive	inactive	inactive	inactive	inactive	inactive	inactive	inactive	inactive	–	active
c1ccc(Oc2ccccc2)cc1	inactive	inactive	inactive	inactive	inactive	inactive	inactive	inactive	inactive	inactive	inactive	inactive	–	–
CC(C)(O)CCCC1=CCC(C=O)CC1 (stereo unspecified)	inactive	inactive	–	–	–	–	–	–	–	–	–	–	–	–
CCCCCC(=O)O	inactive	inactive	inactive	inactive	inactive	inactive	inactive	inactive	inactive	inactive	inactive	inactive	–	–
CC(=O)OC(C)(C)C1CC=C(C)CC1 (stereo unspecified)	inactive	inactive	inactive	inactive	inactive	inactive	inactive	inactive	inactive	inactive	inactive	inactive	inactive	–
C=C(C)C1CCC2=CC(=O)CC(C)C2(C)C1 (stereo unspecified)	active	inactive	–	–	–	–	–	–	–	–	–	–	–	–
